Patent US10563263B2, “Genetic polymorphisms associated with statin response and cardiovascular diseases, methods of detection and uses thereof” (CELERA CORPORATION, priority 2010, dated 2020)
Further values from the same series stand in other lists.

Test system: CHD
Test: Meta-analysis of CARE and WOSCOPS combined, synergy index, CHD endpoint
Assay type: in vivo, human
From the text: Tables 4-5 provide meta-analyses of CARE and WOSCOPS combined (2nd section of each table) for two endpoints (CHD and CVD) and three genetic models (dominant, recessive, and additive), as well as logistic regression analyses of CARE (3rd section of each table) and WOSCOPS (4th section of each table) individually.
Tables 12 and 17 provide results of meta-analysis of the CARE and WOSCOPS sample sets combined by direct genotyping and by imputing genotypes.
“P” indicates the p-value, and “P(R)” (or “P.R.”) indicates the p-value random effect. Both of these are p-values corresponding to a statistical test of whether the combined synergy index is equal to one but use different assumptions to derive the p-value. “P” is calculated using a fixed effects model, and “P(R)” is calculated using a random effects model.
“OR” indicates the odds ratio (synergy index) calculated from a fixed effects model, and “OR(R)” (or “OR.R.”) indicates the odds ratio (synergy index) calculated from a random effects model.

[1] = rs10831422 allele C ADDITIVE Imputed
[2] = rs10831422 allele C GENOTYPIC Imputed
[3] = rs10862931 allele C GENOTYPIC Imputed
[4] = rs10865197 allele C DOMINANT Imputed
[5] = rs10871302 allele A DOMINANT Imputed
[6] = rs10877463 allele C DOMINANT Imputed
[7] = rs10877468 allele C DOMINANT Imputed
[8] = rs10879240 allele C ADDITIVE Imputed
[9] = rs10879242 allele A DOMINANT Imputed
[10] = rs10879245 allele G DOMINANT Imputed
[11] = rs10879249 allele T DOMINANT Imputed
[12] = rs10886452 allele A DOMINANT Imputed
[13] = rs10886463 allele C DOMINANT Imputed
[14] = rs10886465 allele A DOMINANT Imputed
[15] = rs10886526 allele C DOMINANT Imputed
[16] = rs10902437 allele G ADDITIVE Imputed
[17] = rs10941126 allele G ADDITIVE Imputed
[18] = rs10941126 allele G DOMINANT Imputed
[19] = rs10947871 allele A DOMINANT Imputed
[20] = rs10972978 allele G DOMINANT Imputed
[21] = rs10973012 allele A DOMINANT Imputed
[22] = rs10974028 allele G ADDITIVE Genotyped
[23] = rs10974028 allele G DOMINANT Genotyped
[24] = rs11021302 allele A ADDITIVE Imputed
[25] = rs11021302 allele A GENOTYPIC Imputed
[26] = rs11099644 allele G RECESSIVE Imputed
[27] = rs11138315 allele G ADDITIVE Imputed
[28] = rs11149802 allele T DOMINANT Imputed
[29] = rs11178531 allele A ADDITIVE Imputed
[30] = rs11178531 allele A DOMINANT Imputed

Compound: CC[C@H](C)C(=O)O[C@H]1C[C@H](O)C=C2C=C[C@H](C)[C@H](CC[C@@H](O)C[C@@H](O)CC(=O)O)[C@H]21 [Pravastatin, pravastatin]
- OR(R) (rs10831417 allele A GENOTYPIC Imputed): 2.3097
- OR [1]: 1.4561
- OR(R) [1]: 1.4561
- OR [2]: 2.2133
- OR(R) [2]: 2.2133
- OR [3]: 0.4267
- OR(R) [3]: 0.4267
- OR [4]: 1.6437
- OR(R) [4]: 1.6437
- OR [5]: 1.4552
- OR(R) [5]: 1.4552
- OR [6]: 0.6825
- OR(R) [6]: 0.6825
- OR [7]: 0.6833
- OR(R) [7]: 0.6833
- OR [8]: 0.6811
- OR(R) [8]: 0.6808
- OR [9]: 0.5555
- OR(R) [9]: 0.5555
- OR [10]: 0.5555
- OR(R) [10]: 0.5555
- OR [11]: 0.6021
- OR(R) [11]: 0.6021
- OR [12]: 1.6068
- OR(R) [12]: 1.5927
- OR [13]: 1.6141
- OR(R) [13]: 1.6047
- OR [14]: 1.604
- OR(R) [14]: 1.596
- OR [15]: 1.6053
- OR(R) [15]: 1.6053
- Meta-analysis OR (rs10889215 allele A vs G (ref)): 1.63
- OR [16]: 1.3336
- OR(R) [16]: 1.3336
- Meta-analysis OR (rs10935907 allele G vs A (ref)): 1.59
- OR [17]: 0.1976
- OR(R) [17]: 0.1976
- OR [18]: 0.2007
- OR(R) [18]: 0.2007
- OR [19]: 1.5391
- OR(R) [19]: 1.5391
- OR [20]: 0.5018
- OR(R) [20]: 0.5018
- OR [21]: 0.5093
- OR(R) [21]: 0.5093
- OR [22]: 0.6153
- OR(R) [22]: 0.6153
- OR [23]: 0.5349
- OR(R) [23]: 0.5349
- OR [24]: 1.4505
- OR(R) [24]: 1.4505
- OR [25]: 2.2069
- OR(R) [25]: 2.2069
- Meta-analysis OR (rs11077308, A1 (non-ref) G, A2 (ref) A): 1.47
- OR [26]: 2.016
- OR(R) [26]: 2.016
- OR [27]: 0.6333
- OR(R) [27]: 0.6333
- OR [28]: 1.4552
- OR(R) [28]: 1.4552
- OR [29]: 0.7412
- OR(R) [29]: 0.7412
- OR [30]: 0.572
- OR(R) [30]: 0.572
- Meta-analysis OR (rs11610993 allele G vs A (ref)): 0.43
- Meta-analysis OR (rs12155847 allele G vs A (ref)): 1.66
- Meta-analysis OR (rs12286877, A1 (non-ref) A, A2 (ref) G): 2.18
- OR (rs12447191 allele T DOMINANT Genotyped, fixed effect): 0.6338
- OR(R) (rs12447191 allele T DOMINANT Genotyped, random effect): 0.6204
- OR (rs12465349 allele A RECESSIVE Imputed, fixed effect): 1.513
- OR(R) (rs12465349 allele A RECESSIVE Imputed, random effect): 1.513
- OR (rs12509758 allele C DOMINANT Imputed, fixed effect): 1.5799
- OR(R) (rs12509758 allele C DOMINANT Imputed, random effect): 1.5799
- OR (rs12515472 allele A DOMINANT Imputed, fixed effect): 1.4022
- OR(R) (rs12515472 allele A DOMINANT Imputed, random effect): 1.4022
- OR (rs12548906 allele G ADDITIVE Imputed, fixed effect): 1.3761
- OR(R) (rs12548906 allele G ADDITIVE Imputed, random effect): 1.3761
- OR (rs12596240 allele G DOMINANT Imputed, fixed effect): 0.6107
- OR(R) (rs12596240 allele G DOMINANT Imputed, random effect): 0.6107
- Meta-analysis OR (rs12608167, A1 (non-ref) G, A2 (ref) A): 0.67
- OR (rs12618781 allele A DOMINANT Imputed, fixed effect): 0.5924
- OR(R) (rs12618781 allele A DOMINANT Imputed, random effect): 0.5924
- Meta-analysis OR (rs12659030, A1 (non-ref) A, A2 (ref) G): 1.43
- OR (rs12678600 allele A DOMINANT Imputed, fixed effect): 0.6235
- OR(R) (rs12678600 allele A DOMINANT Imputed, random effect): 0.6235
- OR (rs12692229 allele T ADDITIVE Imputed, fixed effect): 1.271
- OR(R) (rs12692229 allele T ADDITIVE Imputed, random effect): 1.271
- OR (rs12713324 allele T DOMINANT Imputed, fixed effect): 1.5061
- OR(R) (rs12713324 allele T DOMINANT Imputed, random effect): 1.5061
- OR (rs12719415 allele T DOMINANT Imputed, fixed effect): 0.6712
- OR(R) (rs12719415 allele T DOMINANT Imputed, random effect): 0.6712
- OR (rs12820589 allele G ADDITIVE Imputed, fixed effect): 1.5773
- OR(R) (rs12820589 allele G ADDITIVE Imputed, random effect): 1.5773
- OR (rs12820589 allele G DOMINANT Imputed, fixed effect): 1.6354
- OR(R) (rs12820589 allele G DOMINANT Imputed, random effect): 1.6354
- OR (rs12831292 allele G ADDITIVE Imputed, fixed effect): 0.7143
- OR(R) (rs12831292 allele G ADDITIVE Imputed, random effect): 0.7143
- OR (rs12831292 allele G DOMINANT Imputed, fixed effect): 0.6038
